This experiment can be described thus: qHTS Assay to Find Inhibitors of Chronic Active B-Cell Receptor Signaling. To be noted: ABC-DLBCL IkBa-CBG/CBR reporter, luminescence ratio (green luciferase fused to IkBa over red control in TMD8 lymphoma cells), 4 h. The method, boiled down: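 Compounds up to 46 uM were incubated four hours with TMD8 cells whose green CBG68 luciferase is fused to IkappaBalpha; red CBR luminescence normalised the signal, and concentration-effect curves were fitted to fusion, red and ratio data.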

[1] abbreviates: measured here: CBR red luminescence, cell number.
Where [2] appears, read: measured here: IkBa-CBG green luminescence.

The list shows a part of the results. Shown are side measurements of this screen, not its main read-out; they come without a call. Most of these compounds were active or inconclusive in the main read-out, so they are no random draw. Potencies come from curve fits of mixed quality, noted in brackets.

For the compound `O=C(Nc1ccc(N2CCCCC2)c(Cl)c1)c1ncn[nH]1`, under setting [1], the concentration at half-maximal activity (AC50) was 1.41 µM [rising, full curve].

Consider `NC(=O)N1CCN(C(=O)c2ccco2)CC1`, for which, under setting [1], the AC50 is 0.146 µM [rising, full curve, poor fit].

Regarding `O=C(Nc1ccc(S(=O)(=O)N2CCOCC2)cc1)c1cc(-c2cc(Cl)ccc2O)n[nH]1`, the AC50 under setting [1] was 25.1 µM [falling, single point].

Turning to `CC1CCC(NC(=O)c2ccc(NC(=O)CC3SC(N4CCCC4)=NC3=O)cc2)CC1` (stereo not given), under setting [1], the half-maximal activity concentration (AC50) is 5.8 µM [falling, full curve].

Turning to `O=C(CCc1ccccc1)n1nc(-c2ccco2)nc1SCc1ccccc1`, the AC50 under setting [1] was 0.411 µM [rising, full curve].

Take `COc1ccccc1C(=O)N1CCN(c2nc3cc(C)c(C)cc3cc2C#N)CC1`: the AC50 under setting [1] was 20.6 µM [falling, single point].

`O=C(Nc1nc2ccccc2s1)NC1CCCCC1`: the AC50 under setting [1] is 28.2 µM [falling, partial curve, poor fit].

Regarding `COc1ccc(Cl)cc1NC(=O)COC(=O)CNC(=O)C1CCCCC1`, under setting [1], the AC50 was 23.1 µM [rising, single point].

Take `CCNC(=O)NC(=O)COc1ccccc1C#N`: the AC50 under setting [1] was 15.8 µM [falling, single point].

With `CCN(CC)C(=O)CSc1ccccc1N`, the AC50 under setting [1] was 29.1 µM [rising, single point].

For `CC(=O)N(/N=C/c1ccc(C)cc1)c1nc(CCl)cs1`, under setting [1], the AC50 is 20 µM [rising, single point].

`CCCNC(=O)N1CCN(C(=O)NCCC)CC1`: the AC50 under setting [1] was 0.366 µM [rising, full curve, poor fit].

Turning to `Oc1[nH]c(N=C2N=c3ccccc3=N2)c2ccccc12`, the AC50 was 17.8 µM [falling, partial curve, poor fit] under setting [1] and 1.12 µM [falling, full curve] under setting [2].

Regarding `C=CCC[C@H](Cc1ccc(F)cc1)C(=O)OC[C@@H](NC(=O)[C@@H](CC=C)CC(=O)N[C@H](CO)Cc1ccccc1)C(C)(C)C`, the concentration at half-maximal activity (AC50) under setting [1] is 23.1 µM [falling, single point].

As to `Fc1ccccc1CSc1nc2ncc(Br)cc2[nH]1`, the AC50 under setting [1] was 1.03 µM [falling, full curve, poor fit].

Turning to `CCOc1ccc(N(CC(=O)Nc2ccccc2C)S(=O)(=O)c2c(C)noc2C)cc1`, the concentration at half-maximal activity (AC50) by setting is: under setting [1], 2.82 µM [rising, partial curve, poor fit]; under setting [2], 7.94 µM [falling, partial curve].

As to `O=C(COC(=O)Cc1ccsc1)NCC12CC3CC(CC(C3)C1)C2`, under setting [1], the AC50 was 0.146 µM [rising, full curve, poor fit].

For `COCCn1c(SCC(=O)Nc2ccc3c(c2)OCCO3)nnc1-c1c[nH]c2ccccc12`, under setting [1], the AC50 was 3.55 µM [rising, single point].

For the origin of these results see PubChem BioAssay AID493014 (National Center for Advancing Translational Sciences (NCATS), 2011).
